Test results as given in PubChem BioAssay AID2685 (National Center for Advancing Translational Sciences (NCATS), 2010).
The other results are listed elsewhere or left out. Shown are side measurements of this screen, not its main read-out; they come without a call. The list favours compounds with an active or inconclusive main result. The note in brackets gives the kind of curve behind each potency; many fits are weak.

Experiment: qHTS Assay for Lipid Storage Modulators in Drosophila S3 Cells;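 for cell number change: cells counted by Cell Tracker Red CMTPX staining in the red channel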
Conditions: BODIPY lipid droplet fluorescence, 18-24 h; for cell number change: measured here: cell count max response, cells fed with added oleic acid
Summary of the method: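 Drosophila S3 cells loaded with oleic acid (400 uM, as added) and compounds at several concentrations; lipid droplets imaged by 488-nm laser-scanning cytometry, 500–530 nm intensity and object ratio to cell channel. Percent activity normalized to 20 uM Triacsin C.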

[1] = measured here: lipid fluorescence (Fed channel) AC50, cells fed with added oleic acid
[2] = measured here: cell number channel AC50, cells fed with added oleic acid

Compound | AC50 [1] | cell number change [%] | AC50 [2]
COc1cccc(N2CCN(C(=O)c3ccc(Cl)c(NC4=NC5CS(=O)(=O)CC5S4)c3)CC2)c1 (configuration not stated) | 29.1 µM [rising, single point] |  | 
CCOC(=O)c1cnc2c(C)c(Cl)ccc2c1N1CCOCC1 |  | 9.96 | 
O=C(Cn1nnc(-c2ccc(F)cc2)n1)N1CCCCC1 | 20.6 µM [falling, single point] | -19.4 | 
COc1ccc(CCN(Cc2ccccn2)C(=S)Nc2ccccc2C)cc1OC | 29.1 µM [rising, partial curve, poor fit] | 55.6 | 29.1 µM [rising, single point]
CC(=O)c1cccc(-n2nnnc2SCC(=O)Nc2cc(C)on2)c1 | 6.51 µM [rising, single point] | -11.5 | 
O=C(c1cc2ccccc2oc1=O)N1CCCCCCC1 | 0.58 µM [falling, single point] | 2.75 | 
Cc1ccc(CN2C(=O)N/C(=C\c3ccc(N4CCOCC4)cc3)C2=O)cc1 |  | -15.2 | 
CCOC(=O)C1=C(O)c2ccccc2C(=O)/C1=C\c1ccc(C)cc1 | 7.31 µM [falling, partial curve] | -97.6 | 23.1 µM [falling, partial curve]
CSCc1cc(N(C)C)nc(SCc2ccc(Cl)cc2Cl)n1 | 7.31 µM [falling, partial curve, poor fit] | -26.9 | 
Cc1cc(Cl)ccc1Oc1nc(-c2ccc(F)cc2)ccc1C#N |  | 87.9 | 29.1 µM [rising, single point]
Cc1c(O)nc(SCC(=O)Nc2ccc3c4c(cccc24)CC3)n(-c2ccc(F)cc2)c1=O |  | 32.1 | 5.8 µM [rising, partial curve]
Cc1nnc(NC(=O)CS(=O)(=O)Cc2ccccc2)s1 |  | 4.84 | 
Cc1cc(C)n(C(=O)CSc2ccc(Cl)cc2)n1 |  | 3.07 | 
C=CCN=C1CC(C)(C)C(C(=O)OC)C(O)=C1C(=O)CCC (configuration not stated) | 0.517 µM [rising, full curve] | 14.8 | 
Cc1nc2cc(-c3ccc(F)cc3)nn2c(N2CCOCC2)c1C |  | 6.03 | 
Cc1ccc(CC(=O)N2CCN(c3ccc([N+](=O)[O-])cc3)CC2)cc1 | 20.6 µM [falling, partial curve] |  | 
COc1ccccc1NC(=O)c1nnn(CC(=O)Nc2cccc(SC)c2)c1N |  |  | 5.17 µM [rising, partial curve]
CN(CC(=O)c1c(N)n(C)c(=O)n(C)c1=O)c1ccccc1 |  | 1.91 | 0.116 µM [falling, full curve, poor fit]
COc1ccc(NC(=O)CN(C)C(=O)c2ccc(N3CCOCC3)c([N+](=O)[O-])c2)cc1 |  |  | 0.00517 µM [falling, full curve, poor fit]
O=c1c([N+](=O)[O-])c(N2CCCCCC2)c2ccccc2n1-c1ccccc1 | 23.1 µM [falling, partial curve] | -67.2 | 18.4 µM [falling, partial curve]

Rewritten as tab-separated lines: part of the list above
Compound	AC50 [1]	cell number change [%]	AC50 [2]
COc1cccc(N2CCN(C(=O)c3ccc(Cl)c(NC4=NC5CS(=O)(=O)CC5S4)c3)CC2)c1 (configuration not stated)	29.1 µM [rising, single point]		
COc1ccc(CCN(Cc2ccccn2)C(=S)Nc2ccccc2C)cc1OC	29.1 µM [rising, partial curve, poor fit]	55.6	29.1 µM [rising, single point]
Cc1ccc(CN2C(=O)N/C(=C\c3ccc(N4CCOCC4)cc3)C2=O)cc1		-15.2	
Cc1c(O)nc(SCC(=O)Nc2ccc3c4c(cccc24)CC3)n(-c2ccc(F)cc2)c1=O		32.1	5.8 µM [rising, partial curve]
Cc1nnc(NC(=O)CS(=O)(=O)Cc2ccccc2)s1		4.84	
C=CCN=C1CC(C)(C)C(C(=O)OC)C(O)=C1C(=O)CCC (configuration not stated)	0.517 µM [rising, full curve]	14.8	
Cc1nc2cc(-c3ccc(F)cc3)nn2c(N2CCOCC2)c1C		6.03	
COc1ccccc1NC(=O)c1nnn(CC(=O)Nc2cccc(SC)c2)c1N			5.17 µM [rising, partial curve]
O=c1c([N+](=O)[O-])c(N2CCCCCC2)c2ccccc2n1-c1ccccc1	23.1 µM [falling, partial curve]	-67.2	18.4 µM [falling, partial curve]

Remaining list, next part

Compound | AC50 [1] | cell number change [%] | AC50 [2]
COc1ccc(-c2cc3ccccc3n2CC(O)CNC(CO)(CO)CO)cc1 (configuration not stated) |  | -8.67 | 
COc1cc2c(cc1OC)CN(C(=O)c1ccc(S(=O)(=O)N3CCCC3)cc1)CC2 | 29.1 µM [rising, single point] | 15.6 | 
C=CCn1c(-c2cccs2)nc2ccccc21 |  | -7.89 | 
Cc1ccc(NC(=S)NCc2ccc(S(N)(=O)=O)cc2)cc1Cl | 0.651 µM [falling, single point] | -17.3 | 0.651 µM [falling, full curve, poor fit]
CC(CC1C(C#N)=C(N)SC(N)=C1C#N)c1ccccc1 (configuration not stated) | 4.61 µM [rising, partial curve, poor fit] | 14 | 
COc1ccc2c(C=O)c[nH]c2c1 | 0.461 µM [rising, full curve] | 10.7 | 
COC(/C(=N/O)c1ccc(Cl)cc1)c1ccccc1 (configuration not stated) | 8.2 µM [falling, partial curve] | -76.8 | 10.3 µM [falling, partial curve]
CSc1ccccc1NC(=S)NC1CCCCC1 | 32.6 µM [falling, single point] | -24.3 | 
Cc1nc(NNC(=O)c2ccc([N+](=O)[O-])cc2)cc(-c2ccccc2)n1 | 6.51 µM [falling, single point] | -2.41 | 
N#C/C(=C\c1cn(CCOc2ccccc2)c2ccccc12)C(=O)NCc1ccco1 | 4.11 µM [rising, full curve, poor fit] |  | 
O=C(O)c1ccc(Cl)c(S(=O)(=O)Nc2ccc3cn[nH]c3c2)c1 | 0.651 µM [falling, full curve] | -35.8 | 0.517 µM [falling, full curve]
CCN(CC(=O)NC(C)(C)C)C(=O)COc1c(Cl)cc(Cl)c2ccc(C)nc12 | 11.6 µM [falling, partial curve] | -38.4 | 20.6 µM [falling, single point]
CC1CCCN(CCOCCOc2ccc(Cl)cc2Br)C1 (configuration not stated) | 6.51 µM [falling, partial curve, poor fit] | -2.96 | 
Nn1c(SCC(=O)N2CCCc3ccccc32)nncc1=O | 1.84 µM [falling, full curve, poor fit] | -22 | 
COc1ccc(C(CNC(=O)CN2C(=O)NC3(CC(C)CC(C)(C)C3)C2=O)N2CCOCC2)cc1 (configuration not stated) | 0.731 µM [falling, single point] |  | 
CCCOc1cccc(C(=O)Nc2ccc3c(c2)OCCO3)c1 |  | -8.73 | 
Nc1nc(-c2cc(O)ccc2[N+](=O)[O-])cc(-c2ccccc2)c1[N+](=O)[O-] | 5.8 µM [falling, full curve] | -25.1 | 2.06 µM [falling, full curve, poor fit]
C=CCN(C(=O)CNC(=O)c1ccco1)C(C(=O)NC1CCCCC1)c1ccccc1F (configuration not stated) | 6.51 µM [rising, single point] |  | 
COc1ccc2c(C(=O)CN3CCN(c4ccccc4)CC3)c[nH]c2c1 | 20.6 µM [rising, single point] | 32.1 | 2.59 µM [rising, full curve]
